{"source": "paper PMC10869706", "about": "“Chp1 is a dedicated chaperone at the ribosome that safeguards eEF1A biogenesis” (Nature Communications, 2024)", "binders": {"B1": {"name": "Egd1 co-expressed in E. coli (protein, UniProt Q02642 1-157)", "chain": "MPIDQEKLAKLQKLSANNKVGGTRRKLNKKAGSSAGANKDDTKLQSQLAKLHAVTIDNVAEANFFKDDGKVMHFNKVGVQVAAQHNTSVFYGLPQEKNLQDLFPGIISQLGPEAIQALSQLAAQMEKHEAKAPADAEKKDEAIPELVEGQTFDADVE"}}, "molecular_target": "T1, Egd2 co-expressed in E. coli (yeast (S. cerevisiae)) (UniProt P38879)", "T1 sequence": "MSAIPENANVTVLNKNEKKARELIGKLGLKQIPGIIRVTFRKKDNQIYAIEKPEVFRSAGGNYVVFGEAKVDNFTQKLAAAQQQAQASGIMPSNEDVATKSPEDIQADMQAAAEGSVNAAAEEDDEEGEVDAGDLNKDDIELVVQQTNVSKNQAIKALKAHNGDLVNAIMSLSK", "assay": "pull-down; co-expression in E. coli; soluble lysate in LWB150 (40 mM Hepes-KOH pH 7.4, 150 mM KCl, 5 mM MgCl2, 5% glycerol) put through IMAC (Ni-IDA) by the 6xHis-SUMO tag on Chp1; SDS-PAGE", "note": "These are yes or no findings as the source states them, for the method shown. Binding seen in cells or lysates may run through a third protein. Some results given as binding are weak or reduced against the parent protein; the word gives no strength."}
{"binder": "B1", "values": [{"measurement": "binding", "value": "binds"}]}
